Laboratory results reported in US5037822A, “1-arylsulphonyl-2-pyrrolidinethione or 1-arylsulphonyl-2-piperidinethione derivatives, process for the preparation thereof their application as medicinal products and compositions containing them” (Roussel-Uclaf, priority 1989, dated 1991).

System: isolated guinea pig ileum, contractions induced by histamine
Experiment: Antagonist action on histamine-induced contractions of isolated guinea pig ileum
Assay type: cell-based
Conditions: Cavia porcellus, read-out: Antagonist to Histam., IC50
Protocol: The interaction of the compounds with different receptors was assessed on isolated guinea pig ileum according to the following method.
Guinea pig ileum segments measuring 2.5-3 cm were washed and immediately suspended in a bath containing 10 ml of Tyrode's solution at 37° C. aerated with a mixture of oxygen (95%) and carbon dioxide (5%). After a stabilization period of at least 30 minutes, the contractions were recorded, maintaining the preparation under constant tension of 1 g using a gauge connected to a polygraph. The agonist action was assessed by leaving the compound in contact with the isolated tissue for a period necessary for expressing the maximal contraction; the preparation was then washed with Tyrode's solution. The next dose was added to the bath only after the preparation had returned to its base line. As a reference product, arecoline was employed. The antagonist action was assessed on contractions induced by acetylchloine (1×10^-6 M), histamine (1×10^-5 M) and barium chloride (2×10^-4 M). Atropine, diphenhydramine and papaverine were employed as reference products. The contact time before adding the agonist was one minute.
For each compound, the dose-response curves are obtained with 4 to 6 different concentrations and 3 to 5 independent tests. The agonist activity is expressed by pD2 (negative logarithm of the dose which produces 50% of the maximum effect). […]

In the case of `CN(C)CCOC(c1ccccc1)c1ccccc1` [Diphenhydramine, diphenhydramine, reference compound], the IC50 is reported as 830 nM.
